Results deposited as PubChem BioAssay AID504764 (Drosophila RNAi Screening Center, 2011)

- Purpose: 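Genome-wide screen for regulators of Notch-driven gene expression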 (primary screen)
- Cells: Drosophila Kc167 cells
- Reagents: long dsRNA against Drosophila genes
- Time to read-out: about 5 days (4 days dsRNA, then 24 h after transfection)
- Challenge: transfection of constitutively active membrane-tethered Notch lacking the extracellular domain, read 24 h later
- Measured: 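Light from a Notch-responsive E(spl)m3 luciferase reporter under active Notch, with control-promoter and no-Notch reporter wells to normalise; raw counts from paired wells a and b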
- Reading the numbers: induced reporter light, run 1, well a and induced reporter light, run 1, well b: higher = more light from the Notch target reporter with active Notch; control promoter light, run 1, well a and control promoter light, run 1, well b: higher = more light from the viral control promoter (cell number, transfection, viability); uninduced reporter light, run 1, well a: higher = more light from the Notch target reporter without active Notch
- Rule for the call: 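Wells with low control signal or poorly matching duplicates excluded; duplicates averaged; per source plate, z beyond ±2 for induced/control log2 ratio or beyond ±1.8 for induced/uninduced marks a hit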
- Meaning of the calls: active = modifier hit (raised or lowered Notch signal); inactive = not a hit
The screen tested about 22,000 reagents; this is a random part of those with a known target gene and a result. In the full data, 403 (1.9%) got an active call. 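Unnormalised raw counts per well; ratio z-scores behind the hit calls and whether each hit raises or lowers signal are not deposited.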 Entries without a mark were called inactive. Names joined by + are all predicted targets of the reagent. Not given: the amount of reagent.

gene knocked down	dsRNA	induced reporter light, run 1, well a	induced reporter light, run 1, well b	control promoter light, run 1, well a	control promoter light, run 1, well b	uninduced reporter light, run 1, well a
Shrm	DRSC06437	37115	32365	35885	34390	5955
Shrm	DRSC06438	91765	80735	1.17e5	1.04e5	9310
Shrm	DRSC07221	31370	26255	24435	26035	2625
CG33969	DRSC11777	1.39e5	1.08e5	1.03e5	1.06e5	8665
CG2063	DRSC06811	1.02e5 (active)	1.06e5	1.00e5	1.15e5	6370
CG11162	DRSC19391	68920	79985	87955	77190	5042
Sox21b	DRSC10025	1.40e5	1.37e5	73020	81355	9970
Sox21b	DRSC10634	24295	13255	29520	30200	4590
CG34051	DRSC01739	1.25e5	1.05e5	93610	1.01e5	9365
CalpA	DRSC07352	1.24e5	89555	1.19e5	1.10e5	8200
CG10513	DRSC14248	2.08e5	2.40e5	2.42e5	2.51e5	12910
Trf4-2	DRSC15237	1.68e5	1.84e5	1.91e5	1.83e5	11830
Tmtc3	DRSC04444	1.36e5	1.48e5	1.03e5	1.06e5	8245
CG15019	DRSC08473	2.12e5	1.99e5	2.54e5	2.98e5	7645
ND-30	DRSC08243	73530	73920	62965	21732	5615
Alg7	DRSC02833	2.05e5	2.47e5	1.75e5	1.92e5	15520
Alg7	DRSC02834	1.26e5	1.27e5	1.05e5	1.08e5	9685
CG3500	DRSC04379	1.36e5	1.42e5	1.56e5	1.46e5	10885
CG17264	DRSC00500	1.16e5	1.21e5	78105	1.03e5	10445
Acsx4	DRSC14311	1.89e5	1.59e5	1.93e5	1.89e5	12215
CG10562	DRSC14257	2.06e5	2.46e5	2.97e5	2.85e5	16805
CG17221	DRSC00487	1.94e5	1.31e5	1.97e5	1.83e5	11420
spn-A	DRSC16812	1.14e5	1.01e5	1.75e5	1.74e5	8795
hang	DRSC19901	28690	32765	14155	17885	4965
hang	DRSC19902	6375	7860	6535	6085	4615
CG1688	DRSC05934	78975	91855	42750	54725	13385
bocks	DRSC16489	92115	1.16e5	84485	66120	7460
mfrn	DRSC15687	98720	1.12e5	1.35e5	1.43e5	9665
rhea	DRSC11300	1.60e5	1.53e5	1.71e5	1.31e5	8465
Vha14-1	DRSC07571	1.02e5	84035	1.17e5	1.15e5	7650
CG8952	DRSC20133	82280	86410	1.38e5	1.03e5	5860
Acp76A	DRSC09665	83925	69390	94515	95355	6975
CG31337	DRSC12981	1.41e5	1.27e5	1.45e5	1.86e5	10360
Dhc36C	DRSC03315	1.04e5	1.36e5	1.14e5	1.36e5	10450
Pop4	DRSC10955	2.29e5	2.67e5	3.77e5	2.37e5	11240
Hira	DRSC18672	1.48e5	1.51e5	2.74e5	2.92e5	11850
Gr33a	DRSC02589	1.10e5 (active)	1.11e5	1.43e5	1.59e5	8925
GstE14	DRSC06881	83200	80895	1.07e5	1.02e5	7370
Nse4	DRSC02239	1.40e5	2.02e5	87480	1.34e5	20230
RpL34b	DRSC16475	89315	1.25e5	1.25e5	91945	4512
spdi	DRSC18487	2.07e5	2.39e5	3.00e5	2.84e5	15835
spdi	DRSC18488	1.96e5	1.60e5	3.06e5	3.28e5	12790
Eglp3	DRSC04293	1.30e5	1.20e5	1.34e5	1.25e5	10815
PEK	DRSC12361	1.37e5	1.38e5	87155	71540	9465
CG7289	DRSC00697	2.27e5	2.15e5	2.06e5	1.61e5	21835
Lcp1	DRSC07455	1.71e5	1.40e5	1.74e5	1.59e5	12210
CG42586 + CG31775	DRSC01413	19295	16040	10315	11015	3750
CG7916	DRSC01901	1.34e5	1.38e5	1.67e5	1.82e5	10900
Adk1	DRSC15514	84285	86500	86290	66835	4520
spn-F	DRSC14475	1.42e5	1.27e5	2.15e5	2.06e5	7992
CG12289	DRSC09874	1.45e5	93870	1.20e5	1.35e5	13105
CG34112	DRSC12235	1.70e5	1.27e5	1.29e5	1.03e5	8232
MESK2 + CG10494	DRSC04259	65610	54325	42575	61815	2178
VAChT	DRSC13311	1.16e5	95070	1.34e5	1.24e5	13345
VAChT	DRSC16608	1.43e5	1.56e5	1.41e5	1.50e5	10692
drn	DRSC15147	1.27e5	1.45e5	1.05e5	1.02e5	5530
Mitofilin	DRSC16742	48795	54065	73360	65260	3200
CG9886	DRSC00732	1.39e5	1.27e5	1.62e5	1.64e5	14675
CG3592	DRSC18315	1.25e5	1.04e5	1.94e5	1.81e5	9265
CG13587	DRSC04223	1.16e5	1.30e5	1.19e5	1.08e5	8305
Rcd-1r + CG13102	DRSC03266	1.05e5	1.17e5	70085	72560	14610
CG30395	DRSC03896	59615	81190	54300	55315	7135
CG12134	DRSC06109	2.16e5	1.97e5	2.22e5	1.88e5	17275
St3	DRSC04505	2.00e5	1.75e5	1.67e5	1.61e5	17340

A few values from the list:
For “uninduced reporter light, run 1, well a”, CG2063 [DRSC06811] has 6370 (active)
Value for CG34051 [DRSC01739] under “control promoter light, run 1, well a”: 93610
For “uninduced reporter light, run 1, well a”, CG3500 [DRSC04379] shows 10885
MESK2 + CG10494 [DRSC04259], control promoter light, run 1, well b: 61815
CG17221 [DRSC00487], control promoter light, run 1, well b → 1.83e5
Result of hang [DRSC19902] under “control promoter light, run 1, well b”: 6085
